Source: patent US20140228293A1 (THE GENERAL HOSPITAL CORPORATION, priority 2011, published 2014)

Test: general procedure: peptide synthesis; HATU, DIEA
Conditions: for step yield: late stage modification step

Substance	step yield [%]	crude mass (whole synthesis) [mg]	crude yield (whole synthesis, scale of the general procedure 0.05 mmol) [%]
[Nle^8,18]hPTH(1-84)	57	–	–
H-SVSEIQLMHNLGKHLNSMERVEW-SPh	28	156.4	68
[Nle^8,18]hPTH(1-37)	38	–	–
